We go through two substances from article PMC7297984.

Protein sequences, listed by entry. Tags and fused reporters are not part of them.
UniProt P05556: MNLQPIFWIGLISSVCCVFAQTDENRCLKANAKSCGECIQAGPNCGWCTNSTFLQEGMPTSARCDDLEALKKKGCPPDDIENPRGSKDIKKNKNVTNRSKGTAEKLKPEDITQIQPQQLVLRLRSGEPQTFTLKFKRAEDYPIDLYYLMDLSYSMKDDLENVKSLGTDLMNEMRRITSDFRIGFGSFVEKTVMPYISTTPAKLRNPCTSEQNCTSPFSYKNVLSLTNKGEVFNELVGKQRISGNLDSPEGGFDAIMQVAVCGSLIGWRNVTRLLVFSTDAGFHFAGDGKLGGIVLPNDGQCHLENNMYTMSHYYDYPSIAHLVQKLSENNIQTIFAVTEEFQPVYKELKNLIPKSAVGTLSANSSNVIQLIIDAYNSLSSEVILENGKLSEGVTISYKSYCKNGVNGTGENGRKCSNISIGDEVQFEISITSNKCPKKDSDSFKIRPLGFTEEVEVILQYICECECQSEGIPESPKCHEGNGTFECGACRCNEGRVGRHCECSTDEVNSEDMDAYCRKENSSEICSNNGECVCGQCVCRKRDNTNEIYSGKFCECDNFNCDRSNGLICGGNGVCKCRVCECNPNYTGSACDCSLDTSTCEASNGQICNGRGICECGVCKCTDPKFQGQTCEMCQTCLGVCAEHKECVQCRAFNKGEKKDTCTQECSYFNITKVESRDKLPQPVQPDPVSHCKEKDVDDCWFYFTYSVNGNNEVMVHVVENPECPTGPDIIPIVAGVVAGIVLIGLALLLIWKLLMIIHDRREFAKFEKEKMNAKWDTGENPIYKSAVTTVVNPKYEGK
UniProt Q12809: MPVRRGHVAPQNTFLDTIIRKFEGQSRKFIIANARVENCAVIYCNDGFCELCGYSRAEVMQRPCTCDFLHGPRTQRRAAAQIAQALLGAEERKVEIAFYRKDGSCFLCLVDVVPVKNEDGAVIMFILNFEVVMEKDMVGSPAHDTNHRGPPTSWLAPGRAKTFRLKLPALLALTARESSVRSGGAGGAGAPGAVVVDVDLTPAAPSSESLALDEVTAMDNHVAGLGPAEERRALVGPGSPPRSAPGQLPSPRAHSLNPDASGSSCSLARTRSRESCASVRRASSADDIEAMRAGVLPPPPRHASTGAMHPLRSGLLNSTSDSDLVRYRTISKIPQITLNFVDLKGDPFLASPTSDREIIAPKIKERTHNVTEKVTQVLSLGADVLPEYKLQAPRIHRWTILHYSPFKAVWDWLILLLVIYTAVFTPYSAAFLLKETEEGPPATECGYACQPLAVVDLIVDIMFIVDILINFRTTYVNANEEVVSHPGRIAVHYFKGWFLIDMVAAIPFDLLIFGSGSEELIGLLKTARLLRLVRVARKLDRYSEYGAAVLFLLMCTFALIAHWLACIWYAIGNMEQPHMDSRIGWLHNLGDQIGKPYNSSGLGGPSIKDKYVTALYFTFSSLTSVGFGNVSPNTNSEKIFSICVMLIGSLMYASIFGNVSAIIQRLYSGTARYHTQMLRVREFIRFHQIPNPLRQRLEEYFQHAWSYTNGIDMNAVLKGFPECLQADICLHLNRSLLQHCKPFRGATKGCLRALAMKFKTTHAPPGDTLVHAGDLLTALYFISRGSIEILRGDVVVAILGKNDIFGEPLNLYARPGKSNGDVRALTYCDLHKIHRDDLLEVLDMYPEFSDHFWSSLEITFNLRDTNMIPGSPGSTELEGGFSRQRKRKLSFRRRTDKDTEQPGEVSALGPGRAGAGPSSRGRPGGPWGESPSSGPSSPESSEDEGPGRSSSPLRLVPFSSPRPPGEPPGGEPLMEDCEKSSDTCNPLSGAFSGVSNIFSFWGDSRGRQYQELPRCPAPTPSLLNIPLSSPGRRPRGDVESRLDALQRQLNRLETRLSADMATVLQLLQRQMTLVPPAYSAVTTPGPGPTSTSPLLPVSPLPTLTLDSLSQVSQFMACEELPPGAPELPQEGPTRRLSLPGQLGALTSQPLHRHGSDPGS

These are yes or no findings as the source states them, for the method shown. In cells and extracts the contact can be indirect. Some entries that bind do so weakly or less than the wild type.

In assay [1] the target is β1 integrin subunit (human (endogenous in HCT 116)) (UniProt P05556). The assay can be described thus: co-IP; HCT 116 cells seeded on uncoated surfaces (no-adhesion control) for 90 min; total lysate (NP40 lysis buffer, 150 mM NaCl, Tris-HCl pH 8) immunoprecipitated, protein A/G agarose beads; blots with anti-KV11.1, anti-β1 integrin and anti-NHE1.
The target is the same in assay [2]. The assay can be described thus: co-IP; HCT 116 cells before seeding or seeded on Col-I for 90 min; total lysate (NP40 lysis buffer, 150 mM NaCl, Tris-HCl pH 8) immunoprecipitated overnight with anti-β1 integrin (TS2/16) or anti-KV11.1 mAb, protein A/G agarose beads 2 h at 4°C; blots with anti-KV11.1, anti-β1 integrin and ….
Assay [3] deals with KV11.1 potassium channel (human (endogenous in HCT 116)) (UniProt Q12809). The assay is described as above.
Assay [4] has as its target β1 integrin subunit (human (endogenous in HCT 116)) (UniProt P05556). The assay can be described thus: condition: only cells seeded onto uncoated surfaces; co-IP; HCT 116 cells seeded on uncoated surfaces (no-adhesion control) for 90 min; total lysate (NP40 lysis buffer, 150 mM NaCl, Tris-HCl pH 8) immunoprecipitated, protein A/G agarose beads; blots with anti-KV11.1, anti-β1 integrin and anti-NHE1.

Regarding “KV11.1 potassium channel (from UniProt Q12809 1-1159)”, the figures for the binding result in assay [1] and in assay [2] were “binds weakly” and “binds”, respectively.
In the case of “Na+/H+ antiporter NHE1 (from UniProt P19634 1-815)”, the binding result was “binds” in assay [3], “binds” in assay [2] and “no binding” in assay [4].
